Here are results for 2 substances from paper doi:10.1101/2021.10.20.465144.

Sequences of proteins named here, by UniProt entry; tags and fusion partners are left off.
UniProt Q8TDY2: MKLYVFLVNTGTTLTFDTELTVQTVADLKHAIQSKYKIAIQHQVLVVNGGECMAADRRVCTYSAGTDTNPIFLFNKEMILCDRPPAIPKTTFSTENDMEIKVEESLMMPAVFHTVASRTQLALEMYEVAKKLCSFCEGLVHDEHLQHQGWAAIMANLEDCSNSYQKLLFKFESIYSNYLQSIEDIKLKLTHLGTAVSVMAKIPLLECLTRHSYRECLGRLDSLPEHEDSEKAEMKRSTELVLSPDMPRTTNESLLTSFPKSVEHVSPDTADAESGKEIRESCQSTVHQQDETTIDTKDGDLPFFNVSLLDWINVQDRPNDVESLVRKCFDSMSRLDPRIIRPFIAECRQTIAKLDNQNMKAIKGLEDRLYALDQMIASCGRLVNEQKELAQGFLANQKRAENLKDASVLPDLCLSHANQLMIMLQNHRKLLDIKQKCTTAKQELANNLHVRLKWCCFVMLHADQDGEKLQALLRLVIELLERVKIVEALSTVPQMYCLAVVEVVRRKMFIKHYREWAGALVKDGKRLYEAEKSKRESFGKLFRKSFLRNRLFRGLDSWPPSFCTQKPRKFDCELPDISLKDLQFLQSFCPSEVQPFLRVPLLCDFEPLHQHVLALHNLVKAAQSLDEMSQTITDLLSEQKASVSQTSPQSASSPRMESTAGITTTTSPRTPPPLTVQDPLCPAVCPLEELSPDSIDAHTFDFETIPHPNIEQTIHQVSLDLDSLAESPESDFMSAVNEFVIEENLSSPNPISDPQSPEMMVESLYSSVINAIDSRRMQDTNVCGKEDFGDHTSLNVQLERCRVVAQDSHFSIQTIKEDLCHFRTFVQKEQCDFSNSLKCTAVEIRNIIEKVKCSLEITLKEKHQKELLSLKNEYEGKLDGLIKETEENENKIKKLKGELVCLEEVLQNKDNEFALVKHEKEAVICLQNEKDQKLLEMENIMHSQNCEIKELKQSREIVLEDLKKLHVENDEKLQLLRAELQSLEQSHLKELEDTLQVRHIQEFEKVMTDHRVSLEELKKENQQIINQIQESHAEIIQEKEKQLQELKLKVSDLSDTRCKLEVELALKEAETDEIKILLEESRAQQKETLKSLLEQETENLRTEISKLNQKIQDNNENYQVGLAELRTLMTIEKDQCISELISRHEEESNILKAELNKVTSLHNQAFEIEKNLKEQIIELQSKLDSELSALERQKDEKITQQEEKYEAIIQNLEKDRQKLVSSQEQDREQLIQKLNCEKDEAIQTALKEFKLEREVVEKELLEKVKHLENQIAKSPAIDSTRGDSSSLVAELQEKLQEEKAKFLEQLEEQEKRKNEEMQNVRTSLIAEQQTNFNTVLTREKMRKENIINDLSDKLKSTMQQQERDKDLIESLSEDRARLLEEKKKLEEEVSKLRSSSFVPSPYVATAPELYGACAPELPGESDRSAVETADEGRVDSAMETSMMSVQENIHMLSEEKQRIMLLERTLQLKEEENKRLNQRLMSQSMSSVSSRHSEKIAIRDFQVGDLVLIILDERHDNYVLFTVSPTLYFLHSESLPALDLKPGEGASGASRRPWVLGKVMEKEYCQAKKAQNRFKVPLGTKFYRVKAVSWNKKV

Assay [1] has as its target FLAG-QPD-DNAJB12 (DNAJB12 mutant with dominant-negative HSP70 interaction domain) (UniProt Q9NXW2). Put plainly: co-IP.
For another assay, the target named is T1, FLAG-DNAJB12 (WT) (UniProt Q9NXW2).
T1 sequence: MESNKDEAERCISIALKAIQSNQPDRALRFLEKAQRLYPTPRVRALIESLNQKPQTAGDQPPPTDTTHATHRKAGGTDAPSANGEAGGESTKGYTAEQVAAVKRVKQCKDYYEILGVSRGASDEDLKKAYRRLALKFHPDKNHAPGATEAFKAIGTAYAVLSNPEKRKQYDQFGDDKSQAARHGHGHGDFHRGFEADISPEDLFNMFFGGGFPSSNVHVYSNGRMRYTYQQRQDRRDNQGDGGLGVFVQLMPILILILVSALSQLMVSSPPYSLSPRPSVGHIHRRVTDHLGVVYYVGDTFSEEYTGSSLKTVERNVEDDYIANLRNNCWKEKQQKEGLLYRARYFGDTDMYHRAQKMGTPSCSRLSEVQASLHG
Put plainly: co-IP.

Results are given in words; binding and its absence hold for the method and conditions named. In cells and extracts the contact can be indirect. For some assays here: A result given as binding can be weak or reduced; the word gives no strength. For some assays here: Tags and fused reporters may be left off the sequences shown.

Turning to “FIP200 (focal adhesion kinase family interacting protein of 200 kD) (from UniProt Q8TDY2 1-1594)”, the binding entry in assay [1] is listed as “binds”.

In the case of calnexin (in COS-7 cells), the binding entry in the assay with FLAG-DNAJB12 (WT) is “no binding”.
